Test results from US20140162876A1, “Fungicidal substituted 1--1H-[1,2,4]triazole compounds” (BASF SE, priority 2011, published 2014).
Some results were stated once for a whole list of compounds, not compound by compound.

Assays:
[1] = system: Alternaria solani; assay: G5 Preventative fungicidal control of early blight on tomatoes (Alternaria solani) (Alteso P1), green house; format: in vivo; conditions: 300 ppm; tomato sprayed 1 day before inoculation; untreated plants 90% infected
[2] = system: Leptosphaeria nodorum; assay: M5 Activity against wheat leaf spots caused by Leptosphaeria nodorum (Leptno), microtest; format: cell-based; conditions: 32 ppm; 7 days after inoculation; compound-free control = 100%
[3] = system: Pyricularia oryzae; format: cell-based; conditions: 32 ppm; 7 days after inoculation; compound-free control = 100%
[4] = system: Septoria tritici; assay: G3 Preventative control of leaf blotch on wheat caused by Septoria tritici (Septtr P1), green house; format: in vivo; conditions: 300 ppm; wheat sprayed 1 day before inoculation; untreated plants 90% infected
[5] = system: Botrytis cinerea; assay: M2 Activity against the grey mold Botrytis cinerea in the microtiterplate test (Botrci); format: cell-based; conditions: 32 ppm; 7 days after inoculation; compound-free control = 100%
[6] = system: Puccinia recondita; assay: G6 Preventative control of brown rust on wheat caused by Puccinia recondita (Puccrt P1), green house; format: in vivo; conditions: 300 ppm; wheat sprayed 1 day before inoculation; untreated plants 90% infected

## CCOC(C)(Cn1cncn1)c1ccc(Oc2ccc(Cl)cc2)cc1Cl (stereo not drawn) [Compound I-1]
[1]
  infection (% diseased leaf area), Alteso P1: less than or equal to 15%
[2]
  growth (relative growth in % of the pathogen), Leptno: ≤ 3%
[3]
  growth (relative growth in % of the pathogen), Pyrior: ≤ 7%
[4]
  infection (% diseased leaf area), Septtr P1: less than or equal to 5%
[5]
  growth (relative growth in % of the pathogen), Botrci: ≤ 10%

## CCOC(CC)(Cn1cncn1)c1ccc(Oc2ccc(Cl)cc2)cc1Cl (stereo not drawn) [Compound I-2, 1-[2-[2-chloro-4-(4-chlorophenoxy)phenyl]-2-ethoxy-butyl]-1,2,4-triazole]
[3]
  growth (relative growth in % of the pathogen), Pyrior: ≤ 7%

## CCOC(Cn1cncn1)(c1ccc(Oc2ccc(Cl)cc2)cc1Cl)C1CC1 (stereo not drawn) [Compound I-3]
[1]
  infection (% diseased leaf area), Alteso P1: less than or equal to 15%
[2]
  growth (relative growth in % of the pathogen), Leptno: ≤ 3%
[3]
  growth (relative growth in % of the pathogen), Pyrior: ≤ 7%
[4]
  infection (% diseased leaf area), Septtr P1: less than or equal to 5%
[5]
  growth (relative growth in % of the pathogen), Botrci: ≤ 10%

## C#CC(Cn1cncn1)(OCC)c1ccc(Oc2ccc(Cl)cc2)cc1Cl (stereo not drawn) [Compound I-4]
[1]
  infection (% diseased leaf area), Alteso P1: less than or equal to 15%
[6]
  infection (% diseased leaf area), Puccrt P1: less than or equal to 5%

## CCCCC(Cn1cncn1)(OCC)c1ccc(Oc2ccc(Cl)cc2)cc1Cl (stereo not drawn) [Compound I-5]
[1]
  infection (% diseased leaf area), Alteso P1: less than or equal to 15%
[2]
  growth (relative growth in % of the pathogen), Leptno: ≤ 3%
[3]
  growth (relative growth in % of the pathogen), Pyrior: ≤ 7%
[4]
  infection (% diseased leaf area), Septtr P1: less than or equal to 5%
[6]
  infection (% diseased leaf area), Puccrt P1: less than or equal to 5%
[5]
  growth (relative growth in % of the pathogen), Botrci: ≤ 10%

## CC#CC(Cn1cncn1)(OCC)c1ccc(Oc2ccc(Cl)cc2)cc1Cl (stereo not drawn) [Compound I-6]
[1]
  infection (% diseased leaf area), Alteso P1: less than or equal to 15%
[4]
  infection (% diseased leaf area), Septtr P1: less than or equal to 5%
